Results reported in PMC10929191.
Results are given in words; binding and its absence hold for the method and conditions named. In cells and extracts the contact can be indirect. Some entries that bind do so weakly or less than the wild type. For part of these data: Sequences can lack the tags named with a protein. One block for each binder: values may come before it.

What was measured:
[1] = target: T1, TANK-binding kinase 1 (TBK1), endogenous in neonatal rat cardiomyocytes (rat (endogenous in NRCMs)) (UniProt D4A7D3); assay: co-IP; endogenous proteins in NRCM lysate; precipitated with anti-USP38 or anti-TBK1 and magnetic protein A/G beads, anti-IgG as control, western blot; also with NRCMs stimulated with Ang II (interaction enhanced)
T1 sequence: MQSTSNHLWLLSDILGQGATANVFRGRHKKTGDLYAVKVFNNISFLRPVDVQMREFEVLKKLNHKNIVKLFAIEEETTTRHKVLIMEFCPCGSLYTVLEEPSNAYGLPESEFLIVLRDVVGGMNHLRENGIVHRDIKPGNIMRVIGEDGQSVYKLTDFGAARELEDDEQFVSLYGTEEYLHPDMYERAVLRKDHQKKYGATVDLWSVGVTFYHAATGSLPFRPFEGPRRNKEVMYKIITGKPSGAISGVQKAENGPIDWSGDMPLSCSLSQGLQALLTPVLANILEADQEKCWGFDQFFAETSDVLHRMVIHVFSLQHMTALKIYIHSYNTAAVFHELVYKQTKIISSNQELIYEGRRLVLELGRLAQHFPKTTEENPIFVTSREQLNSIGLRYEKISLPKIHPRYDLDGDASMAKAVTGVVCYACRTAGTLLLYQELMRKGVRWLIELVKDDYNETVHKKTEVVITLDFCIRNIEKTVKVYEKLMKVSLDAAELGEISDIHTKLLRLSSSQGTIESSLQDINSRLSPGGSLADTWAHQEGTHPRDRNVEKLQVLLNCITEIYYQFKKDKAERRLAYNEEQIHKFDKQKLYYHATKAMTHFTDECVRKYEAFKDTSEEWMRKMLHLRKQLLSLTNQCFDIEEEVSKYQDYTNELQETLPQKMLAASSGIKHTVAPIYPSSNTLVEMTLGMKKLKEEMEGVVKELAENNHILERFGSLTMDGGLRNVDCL

[2] = target: T2, Ubiquitin specific protease 38 (USP38), endogenous in neonatal rat cardiomyocytes (rat (endogenous in NRCMs)) (UniProt D3Z8K5); assay: as above
T2 sequence: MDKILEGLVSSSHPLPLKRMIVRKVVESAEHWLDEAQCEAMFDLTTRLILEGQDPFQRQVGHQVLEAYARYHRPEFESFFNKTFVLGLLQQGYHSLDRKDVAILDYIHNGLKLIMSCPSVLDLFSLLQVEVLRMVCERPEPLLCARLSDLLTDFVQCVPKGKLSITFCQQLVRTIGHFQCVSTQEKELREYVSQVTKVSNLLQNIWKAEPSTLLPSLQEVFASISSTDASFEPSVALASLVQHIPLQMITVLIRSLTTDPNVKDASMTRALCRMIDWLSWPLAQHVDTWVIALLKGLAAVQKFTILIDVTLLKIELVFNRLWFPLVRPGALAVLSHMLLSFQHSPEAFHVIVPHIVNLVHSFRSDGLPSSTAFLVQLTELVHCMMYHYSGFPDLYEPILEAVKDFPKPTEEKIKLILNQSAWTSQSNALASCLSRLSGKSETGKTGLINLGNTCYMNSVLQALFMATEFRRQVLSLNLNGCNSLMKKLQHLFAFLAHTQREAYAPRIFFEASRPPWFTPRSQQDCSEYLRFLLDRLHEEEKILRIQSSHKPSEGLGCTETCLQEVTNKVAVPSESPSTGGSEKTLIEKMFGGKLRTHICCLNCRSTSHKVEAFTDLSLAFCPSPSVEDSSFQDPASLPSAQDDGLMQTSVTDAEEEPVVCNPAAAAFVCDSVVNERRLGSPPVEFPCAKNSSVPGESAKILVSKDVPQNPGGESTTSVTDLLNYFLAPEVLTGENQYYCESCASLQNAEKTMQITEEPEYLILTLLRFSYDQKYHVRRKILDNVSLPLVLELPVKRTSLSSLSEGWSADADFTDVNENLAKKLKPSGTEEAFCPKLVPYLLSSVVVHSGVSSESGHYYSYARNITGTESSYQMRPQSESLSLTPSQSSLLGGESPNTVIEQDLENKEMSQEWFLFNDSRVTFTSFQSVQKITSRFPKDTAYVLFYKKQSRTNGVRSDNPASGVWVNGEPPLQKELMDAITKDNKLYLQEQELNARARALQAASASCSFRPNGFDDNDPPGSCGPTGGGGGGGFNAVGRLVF

[3] = target: T3, Flag-USP38 (exogenous USP38 expressed from Flag-AdUSP38) (rat) (UniProt D3Z8K5); assay: co-IP; NRCMs transfected with Flag-AdUSP38, MG132 added 6 h before harvest; IgG antibody as negative control; western blot
T3 sequence: T2 sequence

binding [1]: binds
B1: Ubiquitin specific protease 38 (USP38), endogenous in neonatal rat cardiomyocytes (enzyme, UniProt D3Z8K5 1-1041)
chain: T2 sequence

binding [2]: binds | binding [3]: binds
B2: TANK-binding kinase 1 (TBK1), endogenous in neonatal rat cardiomyocytes (enzyme, UniProt D4A7D3 1-729)
chain: T1 sequence
